Measured data: PubChem BioAssay AID1259254 (NCATS, 2017)

- Screen: 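Gene knock-downs that lead to re-replication, shown by excess G2 DNA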 (primary screen)
- Cell system: human HCT116 colorectal cancer cells
- Knock-down reagent: single siRNA against human genes
- Duration: 3 days
- Measurement: 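Nuclei stained with Hoechst and imaged; cell-cycle phase assigned by DNA content; G2 share scaled per plate, non-targeting siRNA 0%, GMNN siRNA 100%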
- Direction: G2 robust z-score and G2 cells, % of GMNN control: higher = more G2 cells, more excess DNA replication
- Active means: 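An siRNA counts as active if its G2 robust z-score lies at least 5 MADs above the screen median; here such calls match roughly 38% of GMNN control or more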
Here is an unselected part of about 59,000 deposited reagents. About 1,550 of them (2.6%) were called active. 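G2 share is only a proxy for re-replication; each gene was hit by three separate siRNAs, and active genes were retested.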 The numbers tell different reagents against one gene apart. Not all columns of the deposit are shown. Not stated in the record: the amount of reagent.

What did the screen give for ANKRD26P1 #1?
G2 robust z-score: 0.0334; G2 cells, % of GMNN control: 3.2; activity call: inactive

How did the screen score ANKRD26P1 #2?
G2 robust z-score: -1.1; G2 cells, % of GMNN control: -4.79; activity call: inactive

What is on record for ANKRD26P1 #3?
G2 robust z-score: 1.23; G2 cells, % of GMNN control: 11.6; activity call: inactive

How did the screen score ANAPC15 #1?
G2 robust z-score: 1.24; G2 cells, % of GMNN control: 11.7; activity call: inactive

For ANAPC15 #2, what does the deposit list?
G2 robust z-score: 2.5; G2 cells, % of GMNN control: 20.5; activity call: inactive

With ANAPC15 #3, how do the results read?
G2 robust z-score: -0.747; G2 cells, % of GMNN control: -2.29; activity call: inactive

What did the screen give for MISP3 #1?
G2 robust z-score: -0.482; G2 cells, % of GMNN control: -0.424; activity call: inactive

With MISP3 #2, how do the results read?
G2 robust z-score: -0.914; G2 cells, % of GMNN control: -3.46; activity call: inactive

With MISP3 #3, what does the deposit list?
G2 robust z-score: 0.998; G2 cells, % of GMNN control: 9.99; activity call: inactive

What is on record for CEP83 #1?
G2 robust z-score: -0.0272; G2 cells, % of GMNN control: 2.78; activity call: inactive

For CEP83 #2, what does the deposit list?
G2 robust z-score: 2.21; G2 cells, % of GMNN control: 18.5; activity call: inactive

Which result is listed for CEP83 #3?
G2 robust z-score: 0.414; G2 cells, % of GMNN control: 5.88; activity call: inactive

For CDC20B #1, how do the results read?
G2 robust z-score: 0.761; G2 cells, % of GMNN control: 8.32; activity call: inactive

What did the screen give for CDC20B #2?
G2 robust z-score: -0.638; G2 cells, % of GMNN control: -1.52; activity call: inactive

How did the screen score CDC20B #3?
G2 robust z-score: 1.07; G2 cells, % of GMNN control: 10.5; activity call: inactive

Look-ups from above:
ANKRD26P1 #3, G2 robust z-score = 1.23
Under “G2 cells, % of GMNN control”, ANAPC15 #2 reads 20.5
CEP83 #2, activity call = inactive

Continued.
With DHX36 #1, what was measured?
G2 robust z-score: -0.673; G2 cells, % of GMNN control: -1.77; activity call: inactive

What is on record for DHX36 #2?
G2 robust z-score: 1.33; G2 cells, % of GMNN control: 12.3; activity call: inactive

What did the screen give for DHX36 #3?
G2 robust z-score: -0.121; G2 cells, % of GMNN control: 2.11; activity call: inactive

For TUBGCP2 #1, what does the deposit list?
G2 robust z-score: 1.24; G2 cells, % of GMNN control: 11.7; activity call: inactive

For TUBGCP2 #2, what was measured?
G2 robust z-score: 0.266; G2 cells, % of GMNN control: 4.84; activity call: inactive

For TUBGCP2 #3, how do the results read?
G2 robust z-score: 0.772; G2 cells, % of GMNN control: 8.4; activity call: inactive

With FOXP4 #1, what was measured?
G2 robust z-score: 0.128; G2 cells, % of GMNN control: 3.87; activity call: inactive

For FOXP4 #2, how do the results read?
G2 robust z-score: 2.27; G2 cells, % of GMNN control: 19; activity call: inactive

How did the screen score FOXP4 #3?
G2 robust z-score: 2.22; G2 cells, % of GMNN control: 18.6; activity call: inactive
